The data set in a line: general procedure: Fmoc solid-phase peptide synthesis; Fmoc-Gly-PEG PS resin; PAL-PEG-PS; PyBop, DIPEA. As to conditions: whole synthesis, scale of the general procedure 0.1 mmol.

*: point of attachment. Fmoc = O=C(OCC1c2ccccc2-c2ccccc21)*

For “Fmoc-WGGGACVRFGWTCSDRFRNCG-NH2 (cysteine pairing not given here)”, the “final HPLC purity” value is over 90%.

The values are drawn from patent publication US9670482B2 (BICYCLE THERAPEUTICS LIMITED, priority 2009, dated 2017).
